PMC11910552, “Regulation of acetyl-CoA biosynthesis via an intertwined acetyl-CoA synthetase/acetyltransferase complex” (Nature Communications, 2025)
No constants are given. Whether binding was seen depends on the method and setting. For some assays here: Where a sequence is shown, tags or fusion partners need not be part of it. One block for each binder: values may come before it.

Experiments:
[1] = molecular target: T1, GST-tagged AcsA (Bacillus subtilis) (Bacillus subtilis) (UniProt P39062); assay: pull-down; 200 μg GST-tagged protein immobilised on GST-Sepharose beads in spin columns, 200 μg partner added in SEC buffer (20 mM HEPES-Na pH 7.5, 200 mM NaCl, 20 mM KCl, 20 mM MgCl2), 30 min, three washes, elution with 20 mM GSH, Coomassie-stained SDS-PAGE; without Ac-CoA (also with 1 mM ATP, 1 mM AMP or 130 μM CoA, or with AcuB and AcuC added); both purified
T1 sequence: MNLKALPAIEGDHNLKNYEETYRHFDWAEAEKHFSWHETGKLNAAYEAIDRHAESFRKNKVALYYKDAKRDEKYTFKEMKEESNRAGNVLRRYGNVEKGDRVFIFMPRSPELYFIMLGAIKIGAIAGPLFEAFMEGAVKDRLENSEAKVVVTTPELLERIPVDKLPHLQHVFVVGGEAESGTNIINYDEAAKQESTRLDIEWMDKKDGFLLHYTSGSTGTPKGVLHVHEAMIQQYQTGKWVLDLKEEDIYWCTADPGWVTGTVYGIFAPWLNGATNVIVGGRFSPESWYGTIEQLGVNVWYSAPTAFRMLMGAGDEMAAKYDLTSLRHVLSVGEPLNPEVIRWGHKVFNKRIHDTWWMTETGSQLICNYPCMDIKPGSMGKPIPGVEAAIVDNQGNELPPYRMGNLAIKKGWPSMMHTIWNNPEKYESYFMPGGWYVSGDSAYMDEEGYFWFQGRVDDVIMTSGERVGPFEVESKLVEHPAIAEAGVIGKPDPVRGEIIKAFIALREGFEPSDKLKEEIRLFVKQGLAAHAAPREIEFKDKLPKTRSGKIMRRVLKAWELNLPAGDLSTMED

[2] = molecular target: T2, Acetyl-CoA synthetase AcsA (Bacillus subtilis) (Bacillus subtilis) (UniProt P39062); assay: condition: only with 200-1000 μM acetate, 500 μM ATP and 500 μM CoA, 60 min; mass photometry; AcsA and AcuA incubated with 500 μM ATP, 500 μM CoA and 0.02-5 mM acetate for 60 min, then mass photometry; both purified
T2 sequence: T1 sequence

[3] = molecular target: GCN5-related N-acetyltransferase AcuA (Bacillus subtilis) (Bacillus subtilis) (UniProt P39065); assay: mass photometry; TwoMP mass photometer, SEC buffer, 37.5 nM final protein concentration; proteins alone or 37.5 nM AcsA with 37.5 nM AcuA; both purified
[4] = molecular target: T3, GST-tagged AcuA (Bacillus subtilis) (Bacillus subtilis) (UniProt P39065); assay: pull-down; GST-AcuA immobilised on GST-Sepharose beads, AcsA as prey, with 130 μM Ac-CoA; Coomassie-stained SDS-PAGE; both purified
T3 sequence: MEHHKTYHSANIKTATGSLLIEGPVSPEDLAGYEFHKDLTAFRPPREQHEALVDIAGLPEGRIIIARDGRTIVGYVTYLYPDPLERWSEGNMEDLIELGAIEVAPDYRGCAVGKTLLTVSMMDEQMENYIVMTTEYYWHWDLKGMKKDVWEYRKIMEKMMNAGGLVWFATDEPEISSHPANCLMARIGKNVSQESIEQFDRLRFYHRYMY

binding [1]: no binding
B1: AcuC, histone-deacetylase (HDAC)-type deacetylase (Bacillus subtilis) (enzyme, UniProt P39067 1-387)
chain: MRDSVFIYSPSYQTYMFHQEHPFNQQRVLLTYDLLKTINAFDDGDIVTPRLASEEELSLVHTDDYIQAVKLAGAGKLPAEEGESYGLGTEDTPVFAGMHEAASLLVGGTLTAADWVMSGQALHAANLGGGLHHGFRGRASGFCIYNDSAVAIQYIQKKYSARVLYIDTDAHHGDGVQFTFYDNPDVCTLSIHETGRYLFPGTGQIQEKGSGKGYGYSFNIPLDAFTEDDSFLEAYRTAASEVAAYFEPDVIISQNGADAHYYDPLTHLSATINIYEEIPRLAHTLAHQYCGGKWIAVGGGGYDIWRVVPRAWARIWLEMKGIDPGHEIPPEWIVKWQKQCPVALPSSWSDPADLYPPIPRKPEITEKNAQTVSKALYAIRSEQQRTK

binding [2]: no binding
binding [3]: no binding (tested: 37 nM)
B2: GCN5-related N-acetyltransferase AcuA (Bacillus subtilis) (enzyme)
chain: T3 sequence

binding [1]: no binding
B3: AcuB (Bacillus subtilis) (protein, UniProt P39066 1-214)
chain: MIVEQIMKRDVITLTKTDTLETAICKLKEFHIRHLPVVDEERHVIGMITDRDMKQASPSIFEENKRSLFLTRSVDSIMKKDVVCAHPLDFVEEISAVFYEHGIGCLPVVHHQKLIGILTKTDLLRTFVKLTGADQPGSQIEIKVNDITKSLAEISSLCQDLQVKILSVLVYPHDDPGVKVLVFRVKTMNPLPFLQALQRNGHHVVWPSEQRDLL

B4: Acetyl-CoA synthetase AcsA (Bacillus subtilis) (enzyme)
chain: T1 sequence
notes: AcsA, acetyl-CoA synthetase of Bacillus subtilis; gene amplified from genomic DNA of strain 3610; catalytic lysine K549; the gene came from strain 3610; Monomer and dimer seen by mass photometry; also called Ac-CoA synthetase; source: E. coli BL21(DE3), purified (HisTrap, SEC)
binding [4]: no binding (condition: with 130 μM Ac-CoA)
